PubChem BioAssay AID1224830, NIAID – 2016

Purpose: 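Host factors that control LPS-induced TNF expression in human macrophages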 (primary screen)
Cells: human THP-1 monocytic leukaemia cells, TNF dual-luciferase reporter clone, PMA-differentiated to macrophage-like cells
Reagent: siRNA pool against human genes, 50 nM
Timing: LPS for 4 h, given about 3 days after siRNA transfection
Challenge: bacterial LPS (TLR4 ligand), 10 ng/ml
Read-out: 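Ratio of firefly to renilla light, scaled to the plate median and expressed as a robust z-score per replicate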
Scale: TNF reporter robust z-score: higher = stronger TNF reporter response to LPS
Active means: 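Each well counts as active if its z-score is over 2.8 or under -1.5; controls are left without a call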
The whole screen tested about 18,000 reagents; below is a random part of them. About 2,900 of all reagents (16%) count as active. 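Calls are made per well; low scores hint the gene aids the LPS response, high scores that it dampens it.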 Repeated entries: four replicate wells of each siRNA pool.

Target gene | TNF reporter robust z-score | Outcome
CSPP1 (centrosome and spindle pole associated protein 1) | 0.87 | inactive
CSPP1 (centrosome and spindle pole associated protein 1) | -0.03 | inactive
CSPP1 (centrosome and spindle pole associated protein 1) | 0.41 | inactive
CSPP1 (centrosome and spindle pole associated protein 1) | 1.01 | inactive
CRNKL1 (crooked neck pre-mRNA splicing factor 1) | 1.18 | inactive
CRNKL1 (crooked neck pre-mRNA splicing factor 1) | 0.6 | inactive
CRNKL1 (crooked neck pre-mRNA splicing factor 1) | 1.35 | inactive
CRNKL1 (crooked neck pre-mRNA splicing factor 1) | -0.01 | inactive
LYSMD2 (LysM domain containing 2) | 2.64 | inactive
LYSMD2 (LysM domain containing 2) | 1.59 | inactive
LYSMD2 (LysM domain containing 2) | 0.6 | inactive
LYSMD2 (LysM domain containing 2) | -0.9 | inactive
CEP19 (centrosomal protein 19) | 0.34 | inactive
CEP19 (centrosomal protein 19) | 0.64 | inactive
CEP19 (centrosomal protein 19) | -0.27 | inactive
CEP19 (centrosomal protein 19) | 0.13 | inactive
KPNB1 (karyopherin subunit beta 1) | -0.81 | inactive
KPNB1 (karyopherin subunit beta 1) | -0.19 | inactive
KPNB1 (karyopherin subunit beta 1) | -0.51 | inactive
KPNB1 (karyopherin subunit beta 1) | -0.52 | inactive
KCNT1 (potassium sodium-activated channel subfamily T member 1) | -0.88 | inactive
KCNT1 (potassium sodium-activated channel subfamily T member 1) | -1.18 | inactive
KCNT1 (potassium sodium-activated channel subfamily T member 1) | -0.76 | inactive
KCNT1 (potassium sodium-activated channel subfamily T member 1) | -1.42 | inactive
LOXL4 (lysyl oxidase like 4) | -0.09 | inactive
LOXL4 (lysyl oxidase like 4) | 0.7 | inactive
LOXL4 (lysyl oxidase like 4) | -0.98 | inactive
LOXL4 (lysyl oxidase like 4) | 1.99 | inactive
PTCD2 (pentatricopeptide repeat domain 2) | -0.74 | inactive
PTCD2 (pentatricopeptide repeat domain 2) | -1.09 | inactive
PTCD2 (pentatricopeptide repeat domain 2) | -0.73 | inactive
PTCD2 (pentatricopeptide repeat domain 2) | -1.26 | inactive
LRP10 (LDL receptor related protein 10) | -0.56 | inactive
LRP10 (LDL receptor related protein 10) | -0.52 | inactive
LRP10 (LDL receptor related protein 10) | -1.29 | inactive
LRP10 (LDL receptor related protein 10) | -0.94 | inactive
ZP3 (zona pellucida glycoprotein 3) | -0.08 | inactive
ZP3 (zona pellucida glycoprotein 3) | -0.81 | inactive
ZP3 (zona pellucida glycoprotein 3) | -1.68 | active
ZP3 (zona pellucida glycoprotein 3) | -1.6 | active
CLSTN2 (calsyntenin 2) | 0.16 | inactive
CLSTN2 (calsyntenin 2) | -0.1 | inactive
CLSTN2 (calsyntenin 2) | -1.06 | inactive
CLSTN2 (calsyntenin 2) | -0.05 | inactive
CACNA1F (calcium voltage-gated channel subunit alpha1 F) | -1.66 | active
CACNA1F (calcium voltage-gated channel subunit alpha1 F) | 1.72 | inactive
CACNA1F (calcium voltage-gated channel subunit alpha1 F) | 0.34 | inactive
CACNA1F (calcium voltage-gated channel subunit alpha1 F) | -0.25 | inactive
TM4SF18 (transmembrane 4 L six family member 18) | -0.52 | inactive
TM4SF18 (transmembrane 4 L six family member 18) | -0.67 | inactive
TM4SF18 (transmembrane 4 L six family member 18) | -0.66 | inactive
TM4SF18 (transmembrane 4 L six family member 18) | -1.06 | inactive
MYH6 (myosin heavy chain 6) | -1.01 | inactive
MYH6 (myosin heavy chain 6) | -0.83 | inactive
MYH6 (myosin heavy chain 6) | -0.78 | inactive
MYH6 (myosin heavy chain 6) | -0.46 | inactive
UTRN (utrophin) | -0.42 | inactive
UTRN (utrophin) | -0.16 | inactive
UTRN (utrophin) | 0.96 | inactive
UTRN (utrophin) | -0.48 | inactive
MORC3 (MORC family CW-type zinc finger 3) | -0.8 | inactive
MORC3 (MORC family CW-type zinc finger 3) | -0.55 | inactive
MORC3 (MORC family CW-type zinc finger 3) | -0.85 | inactive
MORC3 (MORC family CW-type zinc finger 3) | -1.28 | inactive
PDCD10 (programmed cell death 10) | 0.32 | inactive
PDCD10 (programmed cell death 10) | 0.6 | inactive
PDCD10 (programmed cell death 10) | -1.01 | inactive
PDCD10 (programmed cell death 10) | -1.17 | inactive
DAZ4 (deleted in azoospermia 4) | 1.28 | inactive
DAZ4 (deleted in azoospermia 4) | 1.95 | inactive
DAZ4 (deleted in azoospermia 4) | 1.14 | inactive
DAZ4 (deleted in azoospermia 4) | 1.1 | inactive
MEIS3 (Meis homeobox 3) | 1.57 | inactive
MEIS3 (Meis homeobox 3) | 1.62 | inactive
MEIS3 (Meis homeobox 3) | -1.29 | inactive
MEIS3 (Meis homeobox 3) | -0.31 | inactive
INO80B (INO80 complex subunit B) | -0.13 | inactive
INO80B (INO80 complex subunit B) | -0.69 | inactive
INO80B (INO80 complex subunit B) | -0.97 | inactive
INO80B (INO80 complex subunit B) | -0.47 | inactive
GFI1 (growth factor independent 1 transcriptional repressor) | -0.26 | inactive
GFI1 (growth factor independent 1 transcriptional repressor) | 0.26 | inactive
GFI1 (growth factor independent 1 transcriptional repressor) | 0.34 | inactive
GFI1 (growth factor independent 1 transcriptional repressor) | 0.55 | inactive
OR2T11 (olfactory receptor family 2 subfamily T member 11) | -0.98 | inactive
OR2T11 (olfactory receptor family 2 subfamily T member 11) | -0.87 | inactive
OR2T11 (olfactory receptor family 2 subfamily T member 11) | 0.26 | inactive
OR2T11 (olfactory receptor family 2 subfamily T member 11) | -0.33 | inactive
CCKBR (cholecystokinin B receptor) | -0.15 | inactive
CCKBR (cholecystokinin B receptor) | 0.9 | inactive
CCKBR (cholecystokinin B receptor) | 0.96 | inactive
CCKBR (cholecystokinin B receptor) | 0.01 | inactive
ZBTB49 (zinc finger and BTB domain containing 49) | -1.3 | inactive
ZBTB49 (zinc finger and BTB domain containing 49) | -1.24 | inactive
ZBTB49 (zinc finger and BTB domain containing 49) | -0.83 | inactive
ZBTB49 (zinc finger and BTB domain containing 49) | -1.18 | inactive
CALHM5 (calcium homeostasis modulator family member 5) | 0.76 | inactive
CALHM5 (calcium homeostasis modulator family member 5) | 0.55 | inactive
CALHM5 (calcium homeostasis modulator family member 5) | 0.92 | inactive
CALHM5 (calcium homeostasis modulator family member 5) | 2.02 | inactive
RNF144A (ring finger protein 144A) | 1.35 | inactive
RNF144A (ring finger protein 144A) | -0.25 | inactive
RNF144A (ring finger protein 144A) | 0.73 | inactive
RNF144A (ring finger protein 144A) | 1.74 | inactive
CDK3 (cyclin dependent kinase 3) | -0.64 | inactive
CDK3 (cyclin dependent kinase 3) | 2.91 | active
CDK3 (cyclin dependent kinase 3) | 1.9 | inactive
CDK3 (cyclin dependent kinase 3) | 0.08 | inactive
EHD1 (EH domain containing 1) | -0.52 | inactive
EHD1 (EH domain containing 1) | -0.28 | inactive
EHD1 (EH domain containing 1) | -0.79 | inactive

No new results follow: entries from further up.
Target gene | TNF reporter robust z-score | Outcome
CRNKL1 (crooked neck pre-mRNA splicing factor 1) | 1.18 | inactive
CRNKL1 (crooked neck pre-mRNA splicing factor 1) | 0.6 | inactive
CRNKL1 (crooked neck pre-mRNA splicing factor 1) | 1.35 | inactive
CRNKL1 (crooked neck pre-mRNA splicing factor 1) | -0.01 | inactive
LYSMD2 (LysM domain containing 2) | 2.64 | inactive
LYSMD2 (LysM domain containing 2) | 1.59 | inactive
LYSMD2 (LysM domain containing 2) | 0.6 | inactive
LYSMD2 (LysM domain containing 2) | -0.9 | inactive
CEP19 (centrosomal protein 19) | 0.34 | inactive
CEP19 (centrosomal protein 19) | 0.64 | inactive
CEP19 (centrosomal protein 19) | -0.27 | inactive
CEP19 (centrosomal protein 19) | 0.13 | inactive
KPNB1 (karyopherin subunit beta 1) | -0.81 | inactive
